Some results were stated once for a whole list of compounds, not compound by compound.
Target: T1, human calcium-sensing receptor (CaSR) (Homo sapiens, UniProt P41180)
T1 construct: expressed in transfected cells
T1 sequence (P41180 20-1078): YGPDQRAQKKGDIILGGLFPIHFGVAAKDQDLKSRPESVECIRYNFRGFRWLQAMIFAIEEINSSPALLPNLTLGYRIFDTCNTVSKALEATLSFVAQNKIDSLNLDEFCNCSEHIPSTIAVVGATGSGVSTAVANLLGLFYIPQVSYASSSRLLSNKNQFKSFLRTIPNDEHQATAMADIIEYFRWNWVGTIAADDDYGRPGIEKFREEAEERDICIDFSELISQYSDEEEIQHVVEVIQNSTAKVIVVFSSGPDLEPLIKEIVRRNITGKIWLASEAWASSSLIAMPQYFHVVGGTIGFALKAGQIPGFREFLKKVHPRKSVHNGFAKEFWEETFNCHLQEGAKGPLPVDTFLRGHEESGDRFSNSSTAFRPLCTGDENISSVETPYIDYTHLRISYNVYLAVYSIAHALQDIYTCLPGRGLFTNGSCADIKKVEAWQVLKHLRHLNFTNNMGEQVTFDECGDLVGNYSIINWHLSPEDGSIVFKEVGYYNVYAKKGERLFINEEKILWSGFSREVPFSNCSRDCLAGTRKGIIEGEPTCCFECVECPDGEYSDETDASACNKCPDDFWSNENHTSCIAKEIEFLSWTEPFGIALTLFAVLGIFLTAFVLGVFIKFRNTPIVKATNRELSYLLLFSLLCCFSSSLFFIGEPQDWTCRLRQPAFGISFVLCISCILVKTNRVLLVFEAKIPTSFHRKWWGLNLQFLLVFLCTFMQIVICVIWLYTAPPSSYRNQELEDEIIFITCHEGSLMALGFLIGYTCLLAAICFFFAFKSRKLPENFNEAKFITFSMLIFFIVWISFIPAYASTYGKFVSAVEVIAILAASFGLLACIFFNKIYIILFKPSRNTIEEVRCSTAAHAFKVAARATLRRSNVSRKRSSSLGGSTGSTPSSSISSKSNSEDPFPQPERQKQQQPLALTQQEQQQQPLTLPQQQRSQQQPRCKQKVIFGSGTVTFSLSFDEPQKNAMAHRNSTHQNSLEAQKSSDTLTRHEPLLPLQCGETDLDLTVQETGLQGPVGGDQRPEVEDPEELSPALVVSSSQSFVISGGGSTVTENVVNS
Assay: intracellular Ca assay, CaSR antagonist activity in HEK293/hCaSR cells
Type: cell-based
Settings: Fura2-AM, inhibition of response to calcium chloride ligand solution
Experimental: HEK293 cells stably expressing human calcium-sensing receptor (CaSR) (termed HEK293/hCaSR cells) were used. HEK293/hCaSR cells were cultured in a culture medium [DMEM medium containing 0.5 mg/mL Geneticin, 50 Unit/mL penicillin, 50 μg/mL streptomycin and 10% fetal bovine serum (FBS), all manufactured by Invitrogen] to semiconfluent in an incubator at 37° C. under 5% carbon dioxide atmosphere.
Cultured cells were washed with phosphate buffered saline (PBS(−), manufactured by Dainippon Sumitomo Pharmaceutical Company) which had been prewarmed to 37° C., added with PBS(−) containing 10 mM ethylenediamine tetraacetic acid (EDTA), and then incubated in an incubator at 37° C. for 10 minutes. After adding the culture medium to separate the cells, cell suspension was transferred to a centrifuge tube. Cells were collected by centrifuge at 1,500 rpm for 3 minutes, and resuspended in Ca assay buffer [20 mM HEPES buffer (pH 7.4), 115 mM sodium chloride, 5.4 mM potassium chloride, 0.8 mM magnesium chloride, 0.8 mM calcium chloride, 13.8 mM D(+)-glucose (all manufactured by Wako Pure Chemicals) and 0.1% bovine serum albumin (manufactured by SIGMA)] containing 0.2% Pluronic F-127 (manufactured by Molecular Probes) and […] Fura2-AM (manufactured by DOJINDO LABORATORIES) to obtain a cell suspension of 5×10^6 cells/mL. After incubating at 37° C. for 30 minutes, the cells were washed twice with the Ca assay buffer and suspended in the same buffer to obtain a cell suspension of 1×10^6 cells/60 μL. 60 μL of the cell suspension was aliquoted to each well of a 96 well UV microplate (manufactured by Corning Co.) to give a cell plate.
The test compound was diluted with the Ca assay buffer to five times the final concentration and then 80 μL of the diluted compound was applied to each well of a 96 well round bottomed microplate (manufactured by Corning Co.) to give a sample plate. 80 μL of the Ca assay buffer containing 7.5 mM calcium chloride (i.e., ligand solution) was applied to each well of a 96 well round bottomed microplate to give a ligand plate. Then, thus prepared sample plate, ligand plate, and the cell plate were placed in Functional Drug Screening System (FDSS) 4000 (manufactured by Hamamatsu Photonics K.K.) which had been preswitched on and prewarmed to 37° C. Measurements were then carried out as follows. After incubating the cell plate for 180 seconds, fluorescence intensity was measured every two seconds (excitation wavelength; 340 nm and 380 nm, measurement wavelength; 500 nm). After the measurement for 40 seconds, 20 μL of the test compound solution from the sample plate was added to the cell plate, followed by continuous measurement for 160 seconds. Then, 20 μL of the ligand solution from the ligand plate was added to the cell plate, followed by continuous measurement for 100 seconds.
Amount of change in intracellular Ca concentration is indicated as a peak height of the ratio of the fluorescence intensity with excitation of 340 nm and 380 nm (i.e., fluorescence intensity with excitation at 340 nm/fluorescence intensity with excitation at 380 nm) that is obtained from the difference between the maximum ratio after adding the ligand solution and the ratio before adding the ligand solution. Further, when the peak height obtained from the Ca assay buffer containing no test compound has inhibition ratio of 0% while the peak height obtained from the Ca assay buffer containing no calcium chloride as a ligand solution has inhibition ratio of 100%, inhibition ratio for each test compound (i.e., CaSR antagonist activity) was calculated.

SMILES	IC50 values according to the intracellular Ca assay (CaSR antagonist activity) [μM]
CN(C[C@H](O)CNC(C)(C)CC1Cc2ccccc2C1)S(=O)(=O)c1ccc(-c2ccc(CCC(=O)O)cc2)cc1C(F)(F)F [Exp. 3-98, (R)-3-(4′-(N-(3-(1-(2,3-dihydro-1H-inden-2-yl)-2-methylpropan-2-ylamino)-2-hydroxypropyl)-N-methylsulfamoyl)-3′-(trifluoromethyl)biphenyl-4-yl)propionic acid]	1.0 to 0.3
CN(C[C@H](O)CNC(C)(C)CC1Cc2ccccc2C1)S(=O)(=O)c1cc(-c2ccc(CCC(=O)O)cc2)c(Cl)s1 [Exp. 3-99, (R)-3-(4-(2-chloro-5-(N-(3-(1-(2,3-dihydro-1H-inden-2-yl)-2-methylpropan-2-ylamino)-2-hydroxypropyl)-N-methylsulfamoyl)thiophen-3-yl)phenyl)propionic acid]	1.0 to 0.3
CN(C[C@H](O)CNC(C)(C)CC1Cc2ccccc2C1)S(=O)(=O)c1ccc(-c2ccc(CCC(=O)O)cc2)cc1OC(F)(F)F [Exp. 3-100, (R)-3-(4′-(N-(3-(1-(2,3-dihydro-1H-inden-2-yl)-2-methylpropan-2-ylamino)-2-hydroxypropyl)-N-methylsulfamoyl)-3′-(trifluoromethoxy)biphenyl-4-yl)propionic acid]	3.0 to 1.0
Cc1cc(-c2ccc(CCC(=O)O)cc2)ccc1S(=O)(=O)N(C)C[C@H](O)CNC(C)(C)CC1Cc2ccccc2C1 [Exp. 3-101, (R)-3-(4′-(N-(3-(1-(2,3-dihydro-1H-inden-2-yl)-2-methylpropan-2-ylamino)-2-hydroxypropyl)-N-methylsulfamoyl)-3′-methylbiphenyl-4-yl)propionic acid]	1.0 to 0.3
CCc1cc(-c2ccc(CCC(=O)O)cc2)ccc1S(=O)(=O)N(C)C[C@H](O)CNC(C)(C)CC1Cc2ccccc2C1 [Exp. 3-102, (R)-3-(4′-(N-(3-(1-(2,3-dihydro-1H-inden-2-yl)-2-methylpropan-2-ylamino)-2-hydroxypropyl)-N-methylsulfamoyl)-3′-ethylbiphenyl-4-yl)propionic acid]	1.0 to 0.3
CN(C[C@H](O)CNC(C)(C)CC1Cc2ccccc2C1)S(=O)(=O)c1cncc(-c2ccc(CCC(=O)O)cc2)c1 [Exp. 3-103, (R)-3-(4-(5-(N-(3-(1-(2,3-dihydro-1H-inden-2-yl)-2-methylpropan-2-ylamino)-2-hydroxypropyl)-N-methylsulfamoyl)pyridin-3-yl)phenyl)propionic acid]	3.0 to 1.0
CN(C[C@H](O)CNC(C)(C)CC1Cc2ccccc2C1)S(=O)(=O)c1ccc(-c2ccc(CCC(=O)O)cc2)c(C(F)(F)F)c1 [Exp. 3-105, (R)-3-(4′-(N-(3-(1-(2,3-dihydro-1H-inden-2-yl)-2-methylpropan-2-ylamino)-2-hydroxypropyl)-N-methylsulfamoyl)-2′-(trifluoromethyl)biphenyl-4-yl)propionic acid]	1.0 to 0.3
CN(C[C@H](O)CNC(C)(C)CC1Cc2ccccc2C1)S(=O)(=O)c1cc(F)c(-c2ccc(CCC(=O)O)cc2)cc1F [Exp. 3-108, (R)-3-(4′-(N-(3-(1-(2,3-dihydro-1H-inden-2-yl)-2-methylpropan-2-ylamino)-2-hydroxypropyl)-N-methylsulfamoyl)-2′,5′-difluorobiphenyl-4-yl)propionic acid]	1.0 to 0.3
CN(C[C@H](O)CNC(C)(C)CC1Cc2ccccc2C1)S(=O)(=O)c1ccc(-c2ccc(CCC(=O)O)cc2)c(F)c1 [Exp. 3-109, (R)-3-(4′-(N-(3-(1-(2,3-dihydro-1H-inden-2-yl)-2-methylpropan-2-ylamino)-2-hydroxypropyl)-N-methylsulfamoyl)-2′-fluorobiphenyl-4-yl)propionic acid]	3.0 to 1.0
CN(C[C@H](O)CNC(C)(C)CCCc1ccccc1)S(=O)(=O)c1c(Cl)cc(Cl)cc1-c1ccc(CCC(=O)O)cc1 [Exp. 3-112, (R)-3-(3′,5′-dichloro-2′-(N-(2-hydroxy-3-(2-methyl-5-phenylpentan-2-ylamino)propyl)-N-methylsulfamoyl)biphenyl-4-yl)propionic acid]	3.0 to 1.0
CN(C[C@H](O)CNC(C)(C)CCCc1ccccc1)S(=O)(=O)c1ccc(C(F)(F)F)cc1-c1ccc(CCC(=O)O)cc1 [Exp. 3-113, (R)-3-(2′-(N-(2-hydroxy-3-(2-methyl-5-phenylpentan-2-ylamino)propyl)-N-methylsulfamoyl)-5′-(trifluoromethyl)biphenyl-4-yl)propionic acid]	1.0 to 0.3
Cc1cc(S(=O)(=O)N(C)C[C@H](O)CNC(C)(C)CCCc2ccccc2)ccc1-c1ccc(CCC(=O)O)cc1 [Exp. 3-115, (R)-3-(4′-(N-(2-hydroxy-3-(2-methyl-5-phenylpentan-2-ylamino)propyl)-N-methylsulfamoyl)-2′-methylbiphenyl-4-yl)propionic acid]	1.0 to 0.3
CN(C[C@H](O)CNC(C)(C)CC1Cc2ccccc2C1)S(=O)(=O)c1ccc(-c2cccc(C=CC(=O)O)c2)cc1 [Exp. 3-117, (R)-3-(4′-(N-(3-(1-(2,3-dihydro-1H-inden-2-yl)-2-methylpropan-2-ylamino)-2-hydroxypropyl)-N-methylsulfamoyl)biphenyl-3-yl)acrylic acid]	1.0 to 0.3
CN(C[C@H](O)CNC(C)(C)CC1Cc2ccccc2C1)S(=O)(=O)c1cc(-c2cccc(C(=O)O)c2)cc(C(F)(F)F)c1 [Exp. 3-118, (R)-3′-(N-(3-(1-(2,3-dihydro-1H-inden-2-yl)-2-methylpropan-2-ylamino)-2-hydroxypropyl)-N-methylsulfamoyl)-5′-(trifluoromethyl)biphenyl-3-carboxylic acid]	1.0 to 0.3
COc1ccc(-c2cccc(C(=O)O)c2)cc1S(=O)(=O)N(C)C[C@H](O)CNC(C)(C)CC1Cc2ccccc2C1 [Exp. 3-119, (R)-3′-(N-(3-(1-(2,3-dihydro-1H-inden-2-yl)-2-methylpropan-2-ylamino)-2-hydroxypropyl)-N-methylsulfamoyl)-4′-methoxybiphenyl-3-carboxylic acid]	3.0 to 1.0
